Data from article PMC8868058.
No constants are given. Whether binding was seen depends on the method and setting. In cells and extracts the contact can be indirect. These calls come from enrichment with a bait or labelling near it, and not all partners need be listed. Where a sequence is shown, tags or fusion partners need not be part of it.

The chains behind the UniProt entries cited, without tags or fusion partners. Where a name states a change or a piece, a line headed by the entry shows the natural chain unless it says otherwise. Residues count along the entry.
UniProt O75369: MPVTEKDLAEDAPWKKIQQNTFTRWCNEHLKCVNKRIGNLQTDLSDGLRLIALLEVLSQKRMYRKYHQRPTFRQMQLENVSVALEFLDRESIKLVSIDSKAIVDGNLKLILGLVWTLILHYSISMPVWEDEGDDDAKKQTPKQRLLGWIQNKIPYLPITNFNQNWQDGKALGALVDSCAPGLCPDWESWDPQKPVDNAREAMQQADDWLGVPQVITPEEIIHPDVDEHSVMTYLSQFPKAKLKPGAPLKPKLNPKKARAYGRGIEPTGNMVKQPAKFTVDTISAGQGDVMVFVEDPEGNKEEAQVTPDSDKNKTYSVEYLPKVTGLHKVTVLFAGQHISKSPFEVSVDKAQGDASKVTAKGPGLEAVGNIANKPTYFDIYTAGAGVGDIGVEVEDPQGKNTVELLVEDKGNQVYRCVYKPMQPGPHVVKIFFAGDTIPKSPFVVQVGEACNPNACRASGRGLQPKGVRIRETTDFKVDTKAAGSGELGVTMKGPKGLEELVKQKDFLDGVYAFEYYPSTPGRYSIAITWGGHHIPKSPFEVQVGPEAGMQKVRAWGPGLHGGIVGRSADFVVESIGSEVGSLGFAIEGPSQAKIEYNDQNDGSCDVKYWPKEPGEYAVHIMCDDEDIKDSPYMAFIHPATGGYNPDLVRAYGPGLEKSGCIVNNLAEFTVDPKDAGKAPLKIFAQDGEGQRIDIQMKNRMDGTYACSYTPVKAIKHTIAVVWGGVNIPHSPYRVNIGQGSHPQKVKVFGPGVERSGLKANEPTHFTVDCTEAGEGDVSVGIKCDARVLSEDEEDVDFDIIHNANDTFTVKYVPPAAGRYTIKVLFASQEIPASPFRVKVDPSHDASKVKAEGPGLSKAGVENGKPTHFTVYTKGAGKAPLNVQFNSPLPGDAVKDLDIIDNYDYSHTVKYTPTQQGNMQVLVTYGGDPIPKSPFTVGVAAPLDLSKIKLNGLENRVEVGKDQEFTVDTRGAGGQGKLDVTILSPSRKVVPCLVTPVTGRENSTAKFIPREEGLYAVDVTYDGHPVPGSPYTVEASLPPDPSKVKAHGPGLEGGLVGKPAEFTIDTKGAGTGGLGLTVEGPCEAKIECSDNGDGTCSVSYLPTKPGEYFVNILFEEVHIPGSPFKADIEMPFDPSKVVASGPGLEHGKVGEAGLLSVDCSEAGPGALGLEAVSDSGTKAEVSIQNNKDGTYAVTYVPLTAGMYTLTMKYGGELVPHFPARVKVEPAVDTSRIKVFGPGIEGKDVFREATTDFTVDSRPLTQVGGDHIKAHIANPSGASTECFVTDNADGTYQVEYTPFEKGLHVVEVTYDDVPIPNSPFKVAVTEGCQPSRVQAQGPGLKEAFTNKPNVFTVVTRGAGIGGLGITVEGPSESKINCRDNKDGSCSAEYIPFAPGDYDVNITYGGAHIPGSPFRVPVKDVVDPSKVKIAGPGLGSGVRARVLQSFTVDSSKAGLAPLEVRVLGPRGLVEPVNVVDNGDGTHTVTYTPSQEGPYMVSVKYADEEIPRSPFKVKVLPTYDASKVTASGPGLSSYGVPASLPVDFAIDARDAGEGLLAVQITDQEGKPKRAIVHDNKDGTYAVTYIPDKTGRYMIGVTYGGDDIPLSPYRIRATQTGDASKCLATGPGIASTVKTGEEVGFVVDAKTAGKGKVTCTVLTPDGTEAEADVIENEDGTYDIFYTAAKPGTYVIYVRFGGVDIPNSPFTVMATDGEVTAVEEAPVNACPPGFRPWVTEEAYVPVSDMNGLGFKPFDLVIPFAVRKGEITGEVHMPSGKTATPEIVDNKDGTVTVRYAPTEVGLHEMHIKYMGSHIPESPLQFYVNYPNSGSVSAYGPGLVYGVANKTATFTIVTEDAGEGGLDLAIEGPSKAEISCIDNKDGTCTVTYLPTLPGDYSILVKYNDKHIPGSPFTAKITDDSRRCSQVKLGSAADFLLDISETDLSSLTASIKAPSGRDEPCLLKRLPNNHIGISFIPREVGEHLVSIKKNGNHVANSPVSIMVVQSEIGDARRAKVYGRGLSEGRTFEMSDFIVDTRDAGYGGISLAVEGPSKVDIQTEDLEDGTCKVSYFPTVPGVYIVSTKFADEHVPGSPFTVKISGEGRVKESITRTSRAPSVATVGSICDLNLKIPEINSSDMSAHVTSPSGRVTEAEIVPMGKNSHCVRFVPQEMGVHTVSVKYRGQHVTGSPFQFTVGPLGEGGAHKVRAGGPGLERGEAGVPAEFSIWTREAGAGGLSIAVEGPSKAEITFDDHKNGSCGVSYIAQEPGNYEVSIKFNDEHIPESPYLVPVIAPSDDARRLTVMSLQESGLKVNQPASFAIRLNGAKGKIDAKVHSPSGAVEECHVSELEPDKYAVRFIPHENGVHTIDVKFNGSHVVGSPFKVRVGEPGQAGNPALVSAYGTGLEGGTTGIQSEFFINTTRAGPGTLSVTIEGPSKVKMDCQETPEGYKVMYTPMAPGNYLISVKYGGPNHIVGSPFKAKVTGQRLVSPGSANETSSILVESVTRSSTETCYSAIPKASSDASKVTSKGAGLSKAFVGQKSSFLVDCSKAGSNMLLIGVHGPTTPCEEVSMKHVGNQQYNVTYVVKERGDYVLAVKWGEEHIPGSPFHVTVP
UniProt Q13185: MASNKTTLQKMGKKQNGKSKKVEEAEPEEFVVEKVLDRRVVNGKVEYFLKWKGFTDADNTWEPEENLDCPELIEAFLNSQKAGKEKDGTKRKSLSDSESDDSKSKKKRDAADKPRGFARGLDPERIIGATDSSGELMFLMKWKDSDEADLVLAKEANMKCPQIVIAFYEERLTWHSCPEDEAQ
UniProt Q16531: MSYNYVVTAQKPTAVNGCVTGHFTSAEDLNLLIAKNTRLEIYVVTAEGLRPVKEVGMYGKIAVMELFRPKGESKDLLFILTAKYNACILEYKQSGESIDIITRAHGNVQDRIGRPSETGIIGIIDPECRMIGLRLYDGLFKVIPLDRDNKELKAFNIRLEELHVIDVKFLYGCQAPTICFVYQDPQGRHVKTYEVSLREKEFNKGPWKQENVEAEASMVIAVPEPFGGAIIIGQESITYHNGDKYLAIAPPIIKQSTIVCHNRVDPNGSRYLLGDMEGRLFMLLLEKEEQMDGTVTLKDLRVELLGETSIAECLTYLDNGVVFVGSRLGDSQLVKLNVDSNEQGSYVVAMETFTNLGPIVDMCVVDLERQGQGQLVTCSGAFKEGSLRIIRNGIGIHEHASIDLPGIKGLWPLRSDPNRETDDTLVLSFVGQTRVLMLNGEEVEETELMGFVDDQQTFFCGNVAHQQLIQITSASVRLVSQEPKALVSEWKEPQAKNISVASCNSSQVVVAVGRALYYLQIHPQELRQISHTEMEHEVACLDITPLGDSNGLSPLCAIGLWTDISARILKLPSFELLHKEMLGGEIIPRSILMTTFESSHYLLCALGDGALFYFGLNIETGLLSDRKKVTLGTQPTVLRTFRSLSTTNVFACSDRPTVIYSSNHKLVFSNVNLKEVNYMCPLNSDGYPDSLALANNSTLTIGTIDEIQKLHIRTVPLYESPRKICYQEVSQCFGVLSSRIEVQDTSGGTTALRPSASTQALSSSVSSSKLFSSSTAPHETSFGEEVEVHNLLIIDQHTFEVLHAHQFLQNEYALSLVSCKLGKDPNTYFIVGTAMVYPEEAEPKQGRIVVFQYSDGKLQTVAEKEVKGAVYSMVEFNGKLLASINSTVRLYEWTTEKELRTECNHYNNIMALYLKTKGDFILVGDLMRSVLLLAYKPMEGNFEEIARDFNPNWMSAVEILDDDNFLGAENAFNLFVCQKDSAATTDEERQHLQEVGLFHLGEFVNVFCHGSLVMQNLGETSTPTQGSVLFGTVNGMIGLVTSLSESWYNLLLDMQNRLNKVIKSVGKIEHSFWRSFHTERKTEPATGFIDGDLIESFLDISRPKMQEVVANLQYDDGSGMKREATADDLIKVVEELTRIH
UniProt P63104: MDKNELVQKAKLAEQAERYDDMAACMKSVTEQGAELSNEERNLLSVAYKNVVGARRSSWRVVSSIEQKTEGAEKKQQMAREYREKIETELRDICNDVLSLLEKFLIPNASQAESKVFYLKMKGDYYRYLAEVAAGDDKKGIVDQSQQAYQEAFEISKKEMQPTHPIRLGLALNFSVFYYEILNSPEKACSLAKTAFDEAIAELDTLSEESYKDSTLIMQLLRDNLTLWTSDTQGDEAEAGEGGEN
UniProt Q7Z2W4: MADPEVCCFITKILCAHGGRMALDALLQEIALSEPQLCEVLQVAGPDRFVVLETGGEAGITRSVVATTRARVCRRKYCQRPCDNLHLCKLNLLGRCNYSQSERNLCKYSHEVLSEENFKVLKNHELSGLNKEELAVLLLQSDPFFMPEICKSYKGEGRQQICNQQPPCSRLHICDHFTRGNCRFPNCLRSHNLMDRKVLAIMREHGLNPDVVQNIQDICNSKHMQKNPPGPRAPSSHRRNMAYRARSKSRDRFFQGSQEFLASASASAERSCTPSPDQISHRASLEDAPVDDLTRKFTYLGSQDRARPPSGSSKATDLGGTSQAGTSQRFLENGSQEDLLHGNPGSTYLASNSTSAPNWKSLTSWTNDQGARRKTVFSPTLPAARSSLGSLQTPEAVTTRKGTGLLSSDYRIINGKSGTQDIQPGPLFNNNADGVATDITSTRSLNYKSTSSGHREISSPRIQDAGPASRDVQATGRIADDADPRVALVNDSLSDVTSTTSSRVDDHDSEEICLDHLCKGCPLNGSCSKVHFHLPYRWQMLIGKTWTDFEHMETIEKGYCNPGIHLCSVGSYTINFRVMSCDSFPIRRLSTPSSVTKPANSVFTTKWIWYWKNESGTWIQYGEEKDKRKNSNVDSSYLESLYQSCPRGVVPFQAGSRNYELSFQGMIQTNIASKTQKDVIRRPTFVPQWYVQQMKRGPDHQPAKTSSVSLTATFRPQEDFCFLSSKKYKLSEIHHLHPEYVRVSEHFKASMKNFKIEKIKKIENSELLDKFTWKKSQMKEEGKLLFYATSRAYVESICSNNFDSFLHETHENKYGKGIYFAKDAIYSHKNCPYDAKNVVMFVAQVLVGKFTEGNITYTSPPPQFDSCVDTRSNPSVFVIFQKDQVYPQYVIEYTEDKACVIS
UniProt P06748: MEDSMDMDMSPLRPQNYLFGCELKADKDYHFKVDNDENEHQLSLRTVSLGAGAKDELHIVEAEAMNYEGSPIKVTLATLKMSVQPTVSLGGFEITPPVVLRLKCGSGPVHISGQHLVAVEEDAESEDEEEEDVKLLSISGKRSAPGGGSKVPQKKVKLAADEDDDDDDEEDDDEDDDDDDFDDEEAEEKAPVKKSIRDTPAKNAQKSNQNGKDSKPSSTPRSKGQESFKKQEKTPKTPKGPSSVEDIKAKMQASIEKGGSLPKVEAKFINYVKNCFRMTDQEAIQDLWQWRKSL
UniProt P06396, residues 28-782: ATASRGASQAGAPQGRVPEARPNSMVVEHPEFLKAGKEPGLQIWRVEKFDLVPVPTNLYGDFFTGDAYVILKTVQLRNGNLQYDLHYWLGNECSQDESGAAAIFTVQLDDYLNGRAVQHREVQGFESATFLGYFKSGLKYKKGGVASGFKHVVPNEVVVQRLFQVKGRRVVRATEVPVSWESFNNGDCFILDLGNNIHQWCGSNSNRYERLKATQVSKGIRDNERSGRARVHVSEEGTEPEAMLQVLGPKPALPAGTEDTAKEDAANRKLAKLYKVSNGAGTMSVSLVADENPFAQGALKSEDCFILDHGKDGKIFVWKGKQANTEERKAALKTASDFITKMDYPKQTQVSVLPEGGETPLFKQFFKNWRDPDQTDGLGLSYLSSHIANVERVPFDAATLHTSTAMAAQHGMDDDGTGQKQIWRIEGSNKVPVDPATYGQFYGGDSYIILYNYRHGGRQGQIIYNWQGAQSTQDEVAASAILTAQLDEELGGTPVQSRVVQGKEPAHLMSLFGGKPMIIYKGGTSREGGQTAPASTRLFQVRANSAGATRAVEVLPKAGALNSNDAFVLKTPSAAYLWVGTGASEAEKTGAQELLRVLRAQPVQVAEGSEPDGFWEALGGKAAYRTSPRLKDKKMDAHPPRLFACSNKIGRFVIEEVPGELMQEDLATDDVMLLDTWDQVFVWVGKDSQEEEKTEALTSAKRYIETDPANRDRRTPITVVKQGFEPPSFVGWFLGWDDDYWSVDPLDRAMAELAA
UniProt P17096: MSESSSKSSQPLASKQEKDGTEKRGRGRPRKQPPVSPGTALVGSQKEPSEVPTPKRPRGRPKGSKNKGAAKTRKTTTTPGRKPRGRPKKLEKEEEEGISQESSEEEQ
UniProt P04792: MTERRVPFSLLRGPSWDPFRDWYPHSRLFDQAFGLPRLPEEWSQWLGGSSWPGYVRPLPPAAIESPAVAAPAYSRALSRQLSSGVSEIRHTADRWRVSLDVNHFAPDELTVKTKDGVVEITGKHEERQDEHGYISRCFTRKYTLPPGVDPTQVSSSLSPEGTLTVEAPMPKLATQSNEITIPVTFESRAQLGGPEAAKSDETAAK

T1: GST-HO-1 (heme oxygenase 1 fused to GST) (human) (UniProt P09601)
T1 sequence: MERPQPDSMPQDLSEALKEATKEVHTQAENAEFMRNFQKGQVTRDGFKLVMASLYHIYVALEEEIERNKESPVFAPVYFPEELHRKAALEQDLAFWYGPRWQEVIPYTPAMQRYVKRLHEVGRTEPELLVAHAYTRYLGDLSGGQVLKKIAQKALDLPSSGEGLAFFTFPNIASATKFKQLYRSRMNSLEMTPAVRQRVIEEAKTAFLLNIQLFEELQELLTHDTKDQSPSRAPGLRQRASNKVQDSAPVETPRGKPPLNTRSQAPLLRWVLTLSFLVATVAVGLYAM

B1: splicing factor rich in serine and arginine 3 (protein, UniProt P84103 1-164)
chain: MHRDSCPLDCKVYVGNLGNNGNKTELERAFGYYGPLRSVWVARNPPGFAFVEFEDPRDAADAVRELDGRTLCGCRVRVELSNGEKRSRNRGPPPSWGRRPRDDYRRRSPPPRRRSPRRRSFSRSRSRSLSRDRRRERSLSRERNHKPSRSFSRSRSRSRSNERK
B2: matrin 3 (protein, UniProt P43243 1-847)
chain: MSKSFQQSSLSRDSQGHGRDLSAAGIGLLAAATQSLSMPASLGRMNQGTARLASLMNLGMSSSLNQQGAHSALSSASTSSHNLQSIFNIGSRGPLPLSSQHRGDADQASNILASFGLSARDLDELSRYPEDKITPENLPQILLQLKRRRTEEGPTLSYGRDGRSATREPPYRVPRDDWEEKRHFRRDSFDDRGPSLNPVLDYDHGSRSQESGYYDRMDYEDDRLRDGERCRDDSFFGETSHNYHKFDSEYERMGRGPGPLQERSLFEKKRGAPPSSNIEDFHGLLPKGYPHLCSICDLPVHSNKEWSQHINGASHSRRCQLLLEIYPEWNPDNDTGHTMGDPFMLQQSTNPAPGILGPPPPSFHLGGPAVGPRGNLGAGNGNLQGPRHMQKGRVETSRVVHIMDFQRGKNLRYQLLQLVEPFGVISNHLILNKINEAFIEMATTEDAQAAVDYYTTTPALVFGKPVRVHLSQKYKRIKKPEGKPDQKFDQKQELGRVIHLSNLPHSGYSDSAVLKLAEPYGKIKNYILMRMKSQAFIEMETREDAMAMVDHCLKKALWFQGRCVKVDLSEKYKKLVLRIPNRGIDLLKKDKSRKRSYSPDGKESPSDKKSKTDGSQKTESSTEGKEQEEKSGEDGEKDTKDDQTEQEPNMLLESEDELLVDEEEAAALLESGSSVGDETDLANLGDVASDGKKEPSDKAVKKDGSASAAAKKKLKKVDKIEELDQENEAALENGIKNEENTEPGAESSENADDPNKDTSENADGQSDENKDDYTIPDEYRIGPYQPNVPVGIDYVIPKTGFYCKLCSLFYTNEEVAKNTHCSSLPHYQKLKKFLNKLAEERRQKKET
B3: testin (protein, UniProt Q9UGI8 1-421)
chain: MDLENKVKKMGLGHEQGFGAPCLKCKEKCEGFELHFWRKICRNCKCGQEEHDVLLSNEEDRKVGKLFEDTKYTTLIAKLKSDGIPMYKRNVMILTNPVAAKKNVSINTVTYEWAPPVQNQALARQYMQMLPKEKQPVAGSEGAQYRKKQLAKQLPAHDQDPSKCHELSPREVKEMEQFVKKYKSEALGVGDVKLPCEMDAQGPKQMNIPGGDRSTPAAVGAMEDKSAEHKRTQYSCYCCKLSMKEGDPAIYAERAGYDKLWHPACFVCSTCHELLVDMIYFWKNEKLYCGRHYCDSEKPRCAGCDELIFSNEYTQAENQNWHLKHFCCFDCDSILAGEIYVMVNDKPVCKPCYVKNHAVVCQGCHNAIDPEVQRVTYNNFSWHASTECFLCSCCSKCLIGQKFMPVEGMVFCSVECKKRMS

The molecules below were run against T1, GST-HO-1 (heme oxygenase 1 fused to GST) (human) (assay: affinity purification with mass spectrometry; GST-HO-1 from transfected PC3 cells treated with H2O2 (200 µM), extracts in 20 mM Tris, 150 mM NaCl, 5 mM MgCl2, 0.5% NP40, pH 7.5, held on glutathione-agarose beads 2 h at 4 °C; LC ESI-MS/MS; only proteins differential against GST empty vector kept).

binding, binds:
filamin B (from UniProt O75369 1-2602)
chromobox 3 (from UniProt Q13185 1-183)
damage specific DNA binding protein 1 (from UniProt Q16531 1-1140)
tripartite motif-containing 28 (from UniProt Q13263 1-835)
14-3-3 zeta delta-like protein (14-3-3ζ/δ) (from UniProt P63104 1-245)
zinc finger CCCH-type containing, antiviral 1 (from UniProt Q7Z2W4 1-902)
nucleophosmin 1 (from UniProt P06748 1-294)
Gelsolin (from UniProt P06396 28-782)
high mobility group AT-hook 1 (from UniProt P17096 1-107)
chromobox 1 (from UniProt P83916 1-185)
heat shock protein family B (small) member 1 (from UniProt P04792 1-205)
B1
B2
B3
